Results are given in words; binding and its absence hold for the method and conditions named. Binding seen in cells or lysates may run through a third protein. Some results given as binding are weak or reduced against the parent protein; the word gives no strength.
Molecular target: FLAG-NKX2-5 (mouse NKX2-5, pEF-FLAG-NKX2-5) (mouse) (UniProt P42582)
Test: co-IP; protein extracts of COS-1 cells expressing FLAG-NKX2-5 (50 ug) and of COS-1 cells expressing GATA4 (30-84 ug) mixed; agarose bound anti-FLAG M2 antibody, overnight at +4°C in lysis buffer (20 mM Tris pH 7.5, 150 mM NaCl, 1 mM EDTA, 1 mM EGTA, 1% Triton X-100, 2.5 mM sodium pyrophosphate); immunoblot with anti-GATA4 and anti-NKX2-5; bands quantified, unspecific binding subtracted, normalized to input and to …

Amino acid sequences for entries named in this document (tags omitted). A change or cut given only in a name is not applied to a line headed by its entry.
UniProt P42582: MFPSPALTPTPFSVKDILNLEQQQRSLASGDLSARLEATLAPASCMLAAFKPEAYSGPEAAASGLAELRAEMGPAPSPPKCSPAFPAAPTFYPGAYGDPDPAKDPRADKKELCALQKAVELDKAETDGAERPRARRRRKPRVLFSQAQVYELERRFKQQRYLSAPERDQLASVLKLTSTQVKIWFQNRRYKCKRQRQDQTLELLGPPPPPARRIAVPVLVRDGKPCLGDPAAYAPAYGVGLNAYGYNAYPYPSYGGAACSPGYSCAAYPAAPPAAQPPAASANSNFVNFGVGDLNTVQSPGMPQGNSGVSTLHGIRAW
UniProt Q08369: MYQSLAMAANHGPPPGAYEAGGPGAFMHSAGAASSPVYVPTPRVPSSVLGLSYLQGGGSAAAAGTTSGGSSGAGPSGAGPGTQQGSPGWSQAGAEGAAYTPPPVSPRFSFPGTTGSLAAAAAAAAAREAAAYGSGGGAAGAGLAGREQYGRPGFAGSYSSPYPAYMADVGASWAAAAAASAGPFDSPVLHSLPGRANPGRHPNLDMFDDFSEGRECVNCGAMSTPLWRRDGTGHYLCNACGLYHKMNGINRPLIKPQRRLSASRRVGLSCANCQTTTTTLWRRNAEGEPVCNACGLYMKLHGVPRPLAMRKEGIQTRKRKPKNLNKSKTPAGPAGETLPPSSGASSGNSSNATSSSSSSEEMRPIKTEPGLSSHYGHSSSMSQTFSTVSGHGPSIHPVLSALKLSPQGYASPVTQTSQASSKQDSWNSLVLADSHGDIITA

Substance | binding
mouse GATA4 S269C+Q274H (from UniProt Q08369 1-441) | binds
wild type mouse GATA4 (pMT2-GATA4) (from UniProt Q08369 1-441) | binds

From PMC4671672
